Measured values reported in PubChem BioAssay AID1307 (SRMLSC, 2008).
Among all 1,200 compounds or so, fewer than 10 were called active.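 The calls were made as follows: active = inhibition reaching a set limit at one or more tested concentrations; inactive = inhibition under that limit at every dose.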 This is one part of the list. Entries with a potency or affinity are not part of this list.

Assay: yeast RAM network inhibitors, dose response, S. cerevisiae (AID 1307);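 also: 0% = DMSO vehicle wells and 100% = 10 µM 1-NA-PP1 control; higher inhibition means more yeast growth since RAM block rescues cells from 5-FOA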
Settings: S. cerevisiae RAM network URA3 reporter, 5-FOA growth OD615, hits give high values, yeast express analog-sensitive mutant Cbk1 kinase; at 100 µM unless noted

Max inhibition, inactive:
Cc1ccccc1OCC(=O)OCC(=O)c1ccc(-c2ccccc2)cc1 7.96%, CCCCOc1ccc(S(=O)(=O)Nc2cc(OC)ccc2OC)cc1 3.71% [at 25 µM], CCOCCCNC(=S)N1CCCN(c2nc3cc(C)c(C)cc3cc2C#N)CC1 1.76% [at 0.391 µM], CCC1CCCCN1S(=O)(=O)c1ccc(S(=O)(=O)N(Cc2cccs2)C2CC2)cc1 (configuration not stated) 2.14% [at 3.125 µM], Cn1nc(C(F)(F)F)c(/C=N/OC(=O)c2ccccc2)c1SCc1ccc(Cl)cc1 2.75% [at 25 µM], COc1cc(/C=C/c2cc(C(=O)O)c3ccccc3n2)cc(OC)c1O 8.74%, Cc1cc(NC(=O)CCSc2ccccc2)ccc1Br 1.17% [at 0.782 µM], O=C(CCc1ccc(CCC(=O)c2cccs2)s1)c1cccs1 2.46% [at 0.782 µM], Cc1c(C(=O)N2CCc3ccccc3C2)oc2ccc(S(=O)(=O)N3CC(C)CC(C)C3)cc12 (configuration not stated) 7.67%, O=C(CSc1ccc(Br)cc1)Nc1ccccc1Oc1ccccc1 3.77% [at 0.196 µM], Cc1noc(NS(=O)(=O)c2ccc(N/C=C\C(=O)c3ccc(Br)cc3)cc2)c1C 7.53%, C=CCn1c(C)cc(C(=O)CSc2nnc(NCc3ccccc3)s2)c1C 1.92% [at 0.196 µM], O=C(COC(=O)c1ccc(CSc2ccc(Cl)cc2)cc1)Nc1ccccc1 4.59%, CCc1ccccc1NC(=O)/C(C#N)=C/c1ccc(Sc2ccccc2)o1 2.64% [at 0.196 µM], Fc1ccc(C2CC(c3cccs3)=NN2c2ccccc2)cc1 (configuration not stated) 2.58%, Cc1ccc(/C=C2/Sc3ccccc3N(CC(=O)NCCCOC(C)C)C2=O)cc1 8.03%, COc1cc(NC(=O)CSCc2cnn(-c3ccccc3)c2-n2cccc2)cc(OC)c1 2.62% [at 0.196 µM], Cc1ccc(S(=O)(=O)N(CCCO)CC(O)CON=C2c3ccccc3-c3ccccc32)cc1 (configuration not stated) 3.7%, Cc1cc(C)cc(NC(=S)NCCSc2ccc(Cl)cc2)c1 2.24%, O=C(CSc1nnc(-c2ccc(Cl)s2)o1)N1CCCc2ccccc21 2.39% [at 6.25 µM], CCOc1cccc(-c2csc(C3COc4ccccc4O3)n2)c1 (configuration not stated) 5.04% [at 50 µM], COCCNC(=O)c1c(N)n(-c2ccccc2)c2nc3ccccc3nc12 11.3%, COc1ccc(OC)c(/C=C/C(=O)c2ccc(Cl)cc2)c1 4.87% [at 50 µM], CC(=O)c1cc(C(=O)c2ccccc2)sc1Nc1ccccc1 6.93%, COc1ccc(C(=O)Nc2cc(OC)c(Cl)cc2OC)cc1 3.65%, CCCCCOc1ccc(NC(=O)c2cc(SC)ccc2Cl)cc1 6.24%, O=C(CCCSc1ccccc1)Nc1nc(-c2ccco2)c(-c2ccco2)s1 3.63%, O=C(COC(=O)c1cc(-c2ccc(Cl)s2)nc2ccccc12)NCc1ccco1 4.67% [at 6.25 µM], CCn1c(=NC(=O)c2cccc(N3C(=O)CCC3=O)c2)sc2c(OC)ccc(OC)c21 4.47%, C=C(CC1([C@@H](NP(=O)(c2ccccc2)c2ccccc2)[C@H]2C[C@@H]2CCCC)CC1)c1ccccc1 6.93%, COc1cccc(/C=C(/C(=O)OCC(=O)NC2CCCC(C)C2C)c2ccccc2)c1 (configuration not stated) 7.65% [at 50 µM], O=C(Nc1nc2ccccc2n1CCN1CCOCC1)c1cn(-c2ccccc2)nc1-c1ccccc1 8.35%, C=CCN(CC=C)S(=O)(=O)c1ccc(NC(=S)NC(=O)Cc2ccc(OC)cc2)cc1 3.47% [at 25 µM], CCCCOc1cccc(C(=O)NC(=S)Nc2cccc(C(F)(F)F)c2)c1 4.25%, CCCCNC(=S)N(C)/N=C/c1ccc(OCC(=O)Nc2ccc(OC)cc2)c(OC)c1 4.25%, O=C(COC(=O)c1ccc2c(=O)n3c(nc2c1)CCC3)Nc1ccc(OC(F)F)cc1 4.22%, Cn1c(=O)cc(OCCCC(=O)NCc2ccc(F)cc2Cl)c2ccccc21 5.53%, Cc1ccc(NC2=Nc3ccccc3N3C2=Nc2c(c(C)nn2-c2ccccc2)C3c2ccc(O)c(O)c2)cc1 (configuration not stated) 6.97%, Cc1ccc(OCc2nnc(SCC(=O)Nc3ccc4c(c3)OCCO4)n2Cc2ccco2)cc1 0.12% [at 0.782 µM], COc1ccc(CSCC(=O)Nc2ccc(S(=O)(=O)N3CCCCCC3)cc2)cc1 0.61% [at 0.196 µM], CCOc1nc(-c2ccccc2)ccc1-c1noc(COc2ccccc2)n1 3.61% [at 50 µM], N#CCc1ccc(NS(=O)(=O)c2ccc(C3CCCCC3)cc2)cc1 5.22% [at 25 µM], CCCSc1nc(NCc2ccco2)c2c3c(sc2n1)COC(C)(CC)C3 (configuration not stated) 3.66%, COc1cc(/C=C/C(=O)c2ccc(C)cc2)ccc1OCC#N 3.89% [at 50 µM], COc1ccc(/C=C/C(=O)c2ccc(OC)cc2OC)c(OC)c1 5.33% [at 1.563 µM], O=C(c1cccs1)n1nc(-c2ccc(Cl)cc2)nc1NCc1ccco1 2.48%, O=C(O)CCN1C(=O)/C(=C/c2cn(-c3ccccc3)nc2-c2cccs2)SC1=S 5.53%, CC(/C=C1\SC(=S)N(C(C(=O)O)C(C)C)C1=O)=C\c1ccccc1 (configuration not stated) 4.71%, CCOC(=O)c1c(C)[nH]c(N=Nc2cccc(C)c2)c1C 5.31%, COC(=O)c1cc(=O)n(Cc2ccc(F)cc2)c(=NCc2ccc(F)cc2)s1 4.01%, C=CCc1ccccc1OCC(=O)N/N=C/c1ccccc1OCC 2.28% [at 0.196 µM], CCOC(=O)c1sc(NC(=O)CSc2nnc(-c3ccc(OC)cc3)n2CCOC)nc1C 1.33% [at 0.782 µM]
